The record followed here is publication PMC9147068, “The Response Regulator RegA Is a Copper Binding Protein That Covalently Dimerizes When Exposed to Oxygen” (Microorganisms, 2022).

For experiment [1], the target named is RegA (response regulator RegA of Rhodobacter capsulatus), wild type, tagless (Rhodobacter capsulatus) (UniProt P42508). Kind of experiment: non-reducing SDS-PAGE; RegA in air without Cu2+, different time periods up to 4 h; both purified.
For experiment [2] the target is unchanged. Kind of experiment: non-reducing SDS-PAGE; RegA dimer formed with Cu2+ and O2, isolated away from the monomer by gel filtration, then treated with DTT; both purified.
Experiment [3] shares this target. Nature of the experiment: ESI-MS; RegA monomers with or without Cu2+ (CuSO4) in an anaerobic chamber, degassed buffers, 10 min; quenched with EDTA or passed through filters; LC (C4 reverse phase)-MS; both purified.
For experiment [4] the target is unchanged. Nature of the experiment: condition: only with Mg2+, Ca2+, Co2+, Ni2+, Zn2+ or Mn2+ in place of Cu2+; non-reducing SDS-PAGE; RegA treated with Mg2+, Ca2+, Co2+, Ni2+, Zn2+ or Mn2+ by the same protocol as for Cu2+; both purified.

Results are given in words; binding and its absence hold for the method and conditions named. Where a sequence is shown, tags or fusion partners need not be part of it.

B1: RegA (response regulator RegA of Rhodobacter capsulatus), wild type, tagless (natural protein, UniProt P42508 1-184, looked up)
chain: MAEEEFAELGSDRSLLLVDDDNAFLTRLARAMEKRGFQTEIAETVSAGKAIVQNRAPAYAVIDLRLEDGNGLEVVEALRERRPEARIVVLTGYGAIATAVAAVKMGATDYLSKPADANDITNALLAKGEALPPPPENPMSADRVRWEHIQRVYELCDRNVSETARRLNMHRRTLQRILAKRSPR
notes: RegA, response regulator of the RegB/RegA two-component system, Rhodobacter capsulatus; wild-type codon at residue 95 (made from the RegA* overexpression vector of Du et al. 1998); a single cysteine, Cys156, in the tryptic peptide VYELCDR; The dimer formed with Cu2+ and O2 is joined by an intermolecular disulfide bond between Cys156 of two chains; also called apo-RegA; RegA monomer
In the case of B1, the binding result is recorded as “no binding (condition: in air without Cu2+, up to 4 h)” in experiment [1]; “no binding (condition: with DTT)” in experiment [2]; “no binding (condition: anaerobic, with or without Cu2+)” in experiment [3]; “no binding” in experiment [4].
